PubChem BioAssay AID743121 – NCATS – 2013
Here is a random part of about 26,000 deposited reagents. 167 of them (0.63%) count as active. 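Calls are per gene from RSA p-values that are not deposited; an individual active-marked siRNA can sensitise only weakly.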 Reagents against one gene are numbered here. Not all columns of the deposit are shown. No sequences are given here.

- Purpose: 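Knock-downs that sensitise breast cancer cells to camptothecin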 (primary screen)
- System: MDA-MB-231 cells, a human breast cancer line
- Reagents: single siRNA against human genes, 20 nM siRNA (0.8 pmol per well)
- Time to read-out: 120 h (drug added 48 h after transfection, read 72 h later)
- Conditions: camptothecin 20 nM (about EC30) for 72 h; vehicle 0.1% DMSO in parallel plates
- Detection: 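Cell viability by ATP luminescence (CellTiter-Glo) as % of non-targeting siRNA wells, and the log2 ratio of viability without drug over viability with camptothecin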
- Direction: log2 vehicle/camptothecin viability: higher = stronger sensitisation to camptothecin
- Active means: 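Active genes have an RSA gene-level p-value below 0.001, computed from the ratios of their separate siRNAs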

CLIC1 (CLIC family member 1) #1 → log2 vehicle/camptothecin viability = -0.241; Call = inactive
CLIC1 (CLIC family member 1) #2 → log2 vehicle/camptothecin viability = 0.012; Call = inactive
CLIC1 (CLIC family member 1) #3 → log2 vehicle/camptothecin viability = 0.0166; Call = inactive
CLIC1 (CLIC family member 1) #4 → log2 vehicle/camptothecin viability = -0.221; Call = inactive
PHB1 (prohibitin 1) #1 → log2 vehicle/camptothecin viability = -0.209; Call = inactive
PHB1 (prohibitin 1) #2 → log2 vehicle/camptothecin viability = 0.569; Call = inactive
PHB1 (prohibitin 1) #3 → log2 vehicle/camptothecin viability = -0.374; Call = inactive
PHB1 (prohibitin 1) #4 → log2 vehicle/camptothecin viability = -0.0386; Call = inactive
CACNG8 (calcium voltage-gated channel auxiliary subunit gamma 8) #1 → log2 vehicle/camptothecin viability = -0.231; Call = inactive
CACNG8 (calcium voltage-gated channel auxiliary subunit gamma 8) #2 → log2 vehicle/camptothecin viability = -0.469; Call = inactive
CACNG8 (calcium voltage-gated channel auxiliary subunit gamma 8) #3 → log2 vehicle/camptothecin viability = -0.261; Call = inactive
CACNG8 (calcium voltage-gated channel auxiliary subunit gamma 8) #4 → log2 vehicle/camptothecin viability = -0.169; Call = inactive
CREBBP (CREB binding lysine acetyltransferase) #1 → log2 vehicle/camptothecin viability = 0.00564; Call = inactive
CREBBP (CREB binding lysine acetyltransferase) #2 → log2 vehicle/camptothecin viability = -0.202; Call = inactive
CREBBP (CREB binding lysine acetyltransferase) #3 → log2 vehicle/camptothecin viability = -0.264; Call = inactive
CREBBP (CREB binding lysine acetyltransferase) #4 → log2 vehicle/camptothecin viability = 0.564; Call = inactive
CACNG1 (calcium voltage-gated channel auxiliary subunit gamma 1) #1 → log2 vehicle/camptothecin viability = 0.0938; Call = inactive
CACNG1 (calcium voltage-gated channel auxiliary subunit gamma 1) #2 → log2 vehicle/camptothecin viability = -0.128; Call = inactive
CACNG1 (calcium voltage-gated channel auxiliary subunit gamma 1) #3 → log2 vehicle/camptothecin viability = -0.283; Call = inactive
CACNG1 (calcium voltage-gated channel auxiliary subunit gamma 1) #4 → log2 vehicle/camptothecin viability = 0.159; Call = inactive
KCNMA1 (potassium calcium-activated channel subfamily M alpha 1) #1 → log2 vehicle/camptothecin viability = -0.213; Call = inactive
KCNMA1 (potassium calcium-activated channel subfamily M alpha 1) #2 → log2 vehicle/camptothecin viability = -0.235; Call = inactive
KCNMA1 (potassium calcium-activated channel subfamily M alpha 1) #3 → log2 vehicle/camptothecin viability = 0.234; Call = inactive
DHRS4 (dehydrogenase/reductase 4) #1 → log2 vehicle/camptothecin viability = -0.232; Call = inactive
DHRS4 (dehydrogenase/reductase 4) #2 → log2 vehicle/camptothecin viability = -0.4; Call = inactive
DHRS4 (dehydrogenase/reductase 4) #3 → log2 vehicle/camptothecin viability = 0.416; Call = inactive
DHRS4 (dehydrogenase/reductase 4) #4 → log2 vehicle/camptothecin viability = -0.115; Call = inactive
DHRS4 (dehydrogenase/reductase 4) #5 → log2 vehicle/camptothecin viability = -0.638; Call = inactive
GNA15 (G protein subunit alpha 15) #1 → log2 vehicle/camptothecin viability = 0.0659; Call = inactive
GNA15 (G protein subunit alpha 15) #2 → log2 vehicle/camptothecin viability = 0.00656; Call = inactive
GNA15 (G protein subunit alpha 15) #3 → log2 vehicle/camptothecin viability = -0.467; Call = inactive
SCN1B (sodium voltage-gated channel beta subunit 1) #1 → log2 vehicle/camptothecin viability = 0.101; Call = inactive
SCN1B (sodium voltage-gated channel beta subunit 1) #2 → log2 vehicle/camptothecin viability = 0.59; Call = inactive
SCN1B (sodium voltage-gated channel beta subunit 1) #3 → log2 vehicle/camptothecin viability = -0.257; Call = inactive
NPBWR1 (neuropeptides B and W receptor 1) #1 → log2 vehicle/camptothecin viability = -0.258; Call = inactive
NPBWR1 (neuropeptides B and W receptor 1) #2 → log2 vehicle/camptothecin viability = -0.215; Call = inactive
NPBWR1 (neuropeptides B and W receptor 1) #3 → log2 vehicle/camptothecin viability = 0.141; Call = inactive

Individual results from above.
Value for DHRS4 (dehydrogenase/reductase 4) #4 under “Call”: inactive
Entry for PHB1 (prohibitin 1) #4 in “Call”: inactive
Value for GNA15 (G protein subunit alpha 15) #2 in “Call”: inactive
Result for DHRS4 (dehydrogenase/reductase 4) #3 under “Call”: inactive
